Publication PMC12059209
Results are given in words; binding and its absence hold for the method and conditions named. Binding seen in cells or lysates may run through a third protein. Some entries that bind do so weakly or less than the wild type. For part of these data: Where a sequence is shown, tags or fusion partners need not be part of it.

By UniProt entry, the sequences of proteins in these tests, tags left out.
UniProt P21127: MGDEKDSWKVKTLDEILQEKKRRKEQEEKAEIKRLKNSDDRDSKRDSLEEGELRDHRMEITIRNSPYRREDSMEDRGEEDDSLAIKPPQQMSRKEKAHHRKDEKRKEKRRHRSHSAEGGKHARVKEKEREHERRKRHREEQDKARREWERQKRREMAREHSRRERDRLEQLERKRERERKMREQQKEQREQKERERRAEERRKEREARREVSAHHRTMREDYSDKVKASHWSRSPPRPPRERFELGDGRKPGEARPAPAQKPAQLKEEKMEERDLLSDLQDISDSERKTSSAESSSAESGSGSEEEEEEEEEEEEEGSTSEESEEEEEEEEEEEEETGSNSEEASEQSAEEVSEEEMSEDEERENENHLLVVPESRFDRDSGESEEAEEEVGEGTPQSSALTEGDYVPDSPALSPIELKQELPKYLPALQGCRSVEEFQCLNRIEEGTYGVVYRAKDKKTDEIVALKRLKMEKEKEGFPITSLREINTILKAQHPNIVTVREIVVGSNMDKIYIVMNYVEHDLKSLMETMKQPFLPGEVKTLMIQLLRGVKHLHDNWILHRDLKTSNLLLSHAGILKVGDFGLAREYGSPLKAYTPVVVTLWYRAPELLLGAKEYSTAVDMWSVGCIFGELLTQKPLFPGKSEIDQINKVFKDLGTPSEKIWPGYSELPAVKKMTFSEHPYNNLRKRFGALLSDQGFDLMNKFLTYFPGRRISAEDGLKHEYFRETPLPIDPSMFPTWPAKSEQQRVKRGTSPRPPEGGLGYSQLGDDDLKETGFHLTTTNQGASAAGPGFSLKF

Key:
Flag-USP22 (161-525 aa) = target: T1, Flag-USP22 (161-525 aa) (UniProt Q9UPT9); test: co-IP; HEK-293FT cells transfected with Flag-USP22 or its truncations; IP with anti-Flag, blot with anti-CDK11B; 50 mM Tris-HCl pH 7.4, 150 mM NaCl, 1 mM EDTA, 0.5% Triton X-100, overnight at 4°C
T1 sequence: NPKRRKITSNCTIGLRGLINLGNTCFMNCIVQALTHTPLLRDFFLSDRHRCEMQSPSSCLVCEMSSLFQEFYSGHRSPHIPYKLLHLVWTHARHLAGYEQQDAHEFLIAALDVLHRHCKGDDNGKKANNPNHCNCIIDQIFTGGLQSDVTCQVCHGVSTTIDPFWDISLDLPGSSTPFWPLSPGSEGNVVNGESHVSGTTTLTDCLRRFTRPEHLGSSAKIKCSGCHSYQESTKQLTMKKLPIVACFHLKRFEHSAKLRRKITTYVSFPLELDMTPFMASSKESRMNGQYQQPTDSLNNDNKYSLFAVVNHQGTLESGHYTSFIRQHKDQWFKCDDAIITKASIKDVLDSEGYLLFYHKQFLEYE

Flag-USP22 (1-160 aa) = target: T2, Flag-USP22 (1-160 aa) (UniProt Q9UPT9); test: as above
T2 sequence: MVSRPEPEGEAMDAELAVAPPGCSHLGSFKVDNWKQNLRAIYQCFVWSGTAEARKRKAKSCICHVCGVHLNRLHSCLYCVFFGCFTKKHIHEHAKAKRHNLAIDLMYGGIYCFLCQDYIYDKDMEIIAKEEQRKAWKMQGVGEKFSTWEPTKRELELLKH

[1] = target: T3, Flag-USP22 (ubiquitin-specific protease 22, full length) (UniProt Q9UPT9); test: as above
T3 sequence: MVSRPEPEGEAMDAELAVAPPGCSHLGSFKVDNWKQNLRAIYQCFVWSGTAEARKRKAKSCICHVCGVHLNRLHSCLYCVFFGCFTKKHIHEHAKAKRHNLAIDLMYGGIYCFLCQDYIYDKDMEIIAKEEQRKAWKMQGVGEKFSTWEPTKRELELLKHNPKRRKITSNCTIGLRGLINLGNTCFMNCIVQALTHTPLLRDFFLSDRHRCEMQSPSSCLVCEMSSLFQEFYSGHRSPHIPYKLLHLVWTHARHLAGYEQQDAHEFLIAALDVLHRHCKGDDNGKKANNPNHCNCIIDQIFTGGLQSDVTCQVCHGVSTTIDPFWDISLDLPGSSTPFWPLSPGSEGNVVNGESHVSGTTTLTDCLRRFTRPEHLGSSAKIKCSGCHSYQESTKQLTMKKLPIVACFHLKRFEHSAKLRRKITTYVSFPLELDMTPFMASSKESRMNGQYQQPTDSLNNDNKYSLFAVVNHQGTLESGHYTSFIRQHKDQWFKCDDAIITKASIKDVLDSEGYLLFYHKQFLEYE

[2] = target: T4, ubiquitin-specific protease 22 (USP22), endogenous (human (endogenous in HEK-293FT, HepG2, Hep3B, Huh7)) (UniProt Q9UPT9); test: co-IP; endogenous proteins in HepG2, Hep3B and Huh7 lysates; IP with anti-USP22 and blot with anti-CDK11B, and IP with anti-CDK11B and blot with anti-USP22; 50 mM Tris-HCl pH 7.4, 150 mM NaCl, 1 mM EDTA, 0.5% Triton X-100, overnight at 4°C
T4 sequence: T3 sequence

[3] = target: cyclin-dependent kinase 11B (CDK11B), endogenous (human (endogenous in HEK-293FT, HepG2, Hep3B, Huh7)) (UniProt P21127); test: as above
His-CDK11B = His-CDK11B (UniProt P21127); test: co-IP; HEK-293FT cells transfected with His-CDK11B; IP with anti-His, blot with anti-USP22; 50 mM Tris-HCl pH 7.4, 150 mM NaCl, 1 mM EDTA, 0.5% Triton X-100, overnight at 4°C

Measured: binding

cyclin-dependent kinase 11B (CDK11B), endogenous (from UniProt P21127 1-795)
binds: Flag-USP22 (161-525 aa) | Flag-USP22 (1-160 aa) | [1] | [2]

B1: ubiquitin-specific protease 22 (USP22), endogenous (enzyme, UniProt Q9UPT9 1-525)
chain: T3 sequence
binds: [3] | His-CDK11B
